# Test results as given in the supplement of paper PMC9254222.
# Counter-ions that a name gives are not always drawn. Over roughly 1,100 compounds, “Renilla luciferase signal (cell health) relative to plate median” has its median near 0.97; the highest 2% begin near 1.6. This is a selection; strong and weak results do not stand in their true shares.
# Test system: HEK293T (UBE3A T485A transfected, BAR Wnt reporter)
# Assay: Renilla luciferase signal (cell health) relative to plate median (fold (linear ratio)); higher = higher Renilla signal
# Settings: 24 h
# How it was run: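 HEK293T cells were grown in DMEM with 10% FBS at 37°C and 5% CO2, at 4500 cells/well in white 384-well plates. They were transfected with a BAR firefly luciferase Wnt reporter, TK-Renilla and an expression plasmid using Fugene 6. Four hours later, robots dosed the chemicals at 0.01–100 uM for 24 h, followed by Dual-Glo luciferase readout. Wnt activity (firefly/Renilla ratio) and cell health (raw Renilla) were median-centred per plate, averaged over four biological replicates.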
SMILES,Renilla luciferase signal (concentration: 0.1 uM),Renilla luciferase signal (concentration: 1 uM),Renilla luciferase signal (concentration: 10 uM),Renilla luciferase signal (concentration: 100 uM),Renilla luciferase signal (concentration: 0.01 uM)
CN(C)C(=O)C1(N2CCCCC2)CCN(CC[C@@]2(c3ccc(Cl)c(Cl)c3)CN(C(=O)c3ccccc3)CCO2)CC1,0.903,0.888,0.664,0.0169,–
CCC(C)c1ccccc1O (stereo not drawn) [2-(Butan-2-yl)phenol],1.06,1.1,1.24,1.36,–
CCCCC=O [Pentanal],0.858,0.897,0.989,1.24,–
COc1cc(C(=O)NC2CCN(C)CC2)ccc1Nc1ncc2c(n1)N(C1CCCC1)CC(F)(F)C(=O)N2C,0.0423,0.044,0.026,0.0253,–
CC1(C)NC(=O)N(c2ccc([N+](=O)[O-])c(C(F)(F)F)c2)C1=O [Nilutamide],1.05,1.09,0.995,0.268,–
CN1CCC(c2c(O)cc(O)c3c(=O)cc(-c4ccccc4Cl)oc23)C(O)C1 (stereo not drawn) [Flavopiridol],0.674,0.0101,0.00863,0.00357,1.07
CC(C)c1cccc(C(C)C)c1N1C(=O)c2ccc(O)cc2C1=O,0.762,0.828,0.243,0.0419,–
CC(=O)OC[C@H]1O[C@@](COC(C)=O)(O[C@H]2O[C@H](COC(C)=O)[C@@H](OC(C)=O)[C@H](OC(C)=O)[C@H]2OC(C)=O)[C@@H](OC(C)=O)[C@@H]1OC(C)=O [Sucrose octaacetate],0.878,0.93,1.01,1.18,–
O=C(O)c1ccccc1C(c1ccc(O)cc1)c1ccc(O)cc1 [Phenolphthalin],1.11,1.1,0.958,0.886,–
COc1cc2c3c(n(CCCn4ccnc4)c(=O)c2cc1OC)-c1cc2c(cc1C3=O)OCO2.Cl,0.21,0.0894,0.154,0.171,0.662
CC(C)c1cccc(C(C)C)c1NC(=O)[N-]S(=O)(=O)c1cc(C(C)(C)O)co1.[Na+],0.547,0.64,0.582,0.654,–
COC(=O)C12CCC(C)(C)CC1C1C(=O)C=C3C4(C)C=C(C#N)C(=O)C(C)(C)C4CCC3(C)C1(C)CC2 (stereo not drawn) [Bardoxalone-methyl],0.552,0.434,0.00785,0.0029,0.716
CN1CCN(c2ccccc2/C=C2\SCCN(c3ccc(Cl)c(Cl)c3)C2=O)CC1 [Elzasonan],1.07,1.11,0.855,0.0286,–
CC(C)c1nnc2ccc(-c3ocnc3-c3cc(F)ccc3F)cn12,0.894,0.835,0.923,0.313,–
[Cl-].c1ccc(C[n+]2cccc3ccccc32)cc1 [1-Benzylquinolinium chloride],0.982,0.98,0.857,0.0421,–
Nc1ncn([C@@H]2O[C@H](CO)[C@@H](O)[C@H]2O)c(=O)n1 [5-azacytidine],0.572,0.391,0.138,0.596,0.936
Cc1cnc(-c2cnc(NCCNc3ccc(C#N)cn3)nc2-c2ccc(Cl)cc2Cl)[nH]1,1.02,0.859,0.675,0.0106,1.12
CCOc1ccc2[nH]cc(C(=O)NCc3ccccc3)c(=O)c2n1,1.05,1.12,1.22,0.85,–

# Three structures already listed, arranged by SMILES length, largest number first:
SMILES,Renilla luciferase signal (concentration: 0.1 uM),Renilla luciferase signal (concentration: 1 uM),Renilla luciferase signal (concentration: 10 uM),Renilla luciferase signal (concentration: 100 uM),Renilla luciferase signal (concentration: 0.01 uM)
CN(C)C(=O)C1(N2CCCCC2)CCN(CC[C@@]2(c3ccc(Cl)c(Cl)c3)CN(C(=O)c3ccccc3)CCO2)CC1,0.903,0.888,0.664,0.0169,–
COc1cc(C(=O)NC2CCN(C)CC2)ccc1Nc1ncc2c(n1)N(C1CCCC1)CC(F)(F)C(=O)N2C,0.0423,0.044,0.026,0.0253,–
CN1CCN(c2ccccc2/C=C2\SCCN(c3ccc(Cl)c(Cl)c3)C2=O)CC1 [Elzasonan],1.07,1.11,0.855,0.0286,–

# Following part

SMILES,Renilla luciferase signal (concentration: 0.1 uM),Renilla luciferase signal (concentration: 1 uM),Renilla luciferase signal (concentration: 10 uM),Renilla luciferase signal (concentration: 100 uM),Renilla luciferase signal (concentration: 0.01 uM)
O=c1c(-c2ccc(O)cc2)coc2cc(O)ccc12 [Daidzein],1.02,1.11,1.03,0.523,–
Cc1c(C(=O)O)c(O)cc2c1C(=O)c1c(O)c([C@@H]3O[C@H](CO)[C@@H](O)[C@H](O)[C@H]3O)c(O)c(O)c1C2=O [Carminic acid],1.06,1.01,0.37,0.0264,–
CCCCOC(=O)CC(CC(=O)OCCCC)(OC(C)=O)C(=O)OCCCC [Acetyl tributyl citrate],1.06,0.871,0.945,1.23,–
CCOC(=O)NCCOc1ccc(Oc2ccccc2)cc1 [Fenoxycarb],0.74,0.839,0.924,0.226,0.711
CC#C[C@]1(O)CC[C@H]2[C@@H]3CCC4=CC(=O)CCC4=C3[C@@H](c3ccc(N(C)C)cc3)C[C@@]21C [Mifepristone],0.953,0.805,0.722,0.151,–
O=C(O)c1cc(/N=N/c2ccc(S(=O)(=O)Nc3ccccn3)cc2)ccc1O [Sulfasalazine],0.788,0.885,0.691,0.277,–
COC(C)COC(C)COC(C)CO (stereo not drawn) [Tripropylene glycol monomethyl ether],0.985,1.09,1.1,1.27,–
COC(=O)c1c(Cl)c(Cl)c(C(=O)OC)c(Cl)c1Cl [Chlorthal-dimethyl],0.742,0.816,0.771,0.813,–
CCCCCCCCCCCCc1ccccc1 [Dodecylbenzene],0.831,0.804,0.858,0.903,–
CN1CCC[C@H]1c1cccnc1 [Nicotine],0.905,0.751,0.88,0.934,–
O=C(c1ccccc1)C1CCCCC1 [Cyclohexylphenylketone],0.926,0.954,1.01,1.26,–
CCCOc1sc(C(=O)N2CCC(c3cc(CN)ccc3F)CC2)c(C)c1Br.Cl,0.999,1.19,0.874,0.755,–
O=C(O)CC(O)C(=O)O (stereo not drawn) [Malic acid],1.33,1.26,1.32,1.29,–
CCCCN1C(=O)[C@@H]([C@H](O)C2CCCCC2)NC(=O)C12CCN(Cc1ccc(Oc3ccc(C(=O)O)cc3)cc1)CC2.Cl [Aplaviroc hydrochloride],–,–,–,2.23,–
"Nc1ccccc1N [1,2-Phenylenediamine]",1.07,0.972,0.692,0.0666,–
O=c1[nH]c2ccc(S(=O)CCN3CCC(Cc4ccc(F)cc4)CC3)cc2o1 (stereo not drawn) [Besonprodil],0.825,0.844,0.693,0.564,–
"O=C(OCCCCCOC(=O)c1ccccc1)c1ccccc1 [Pentane-1,5-diyl dibenzoate]",0.301,0.223,0.206,0.386,–
CC1CCC(NC(=O)N(CCCl)N=O)CC1 (stereo not drawn) [Semustine],1.39,1.21,1.12,0.955,0.916
